# Some peptides are written in HELM: one residue between dots, names in brackets for other building blocks, links after the first $.
# Assay: general procedure: Boc solid-phase peptide synthesis; Merrifield resin (<MF>)
# Settings: for crude mass / crude yield: whole synthesis; for crude yield: relative to heptapeptide resin used, scale of the general procedure 0.8 g (about 0.4 mmol) heptapeptide resin; for oxidative folding yield: oxidative folding step, relative to fully protected nonapeptide amide
Substance,crude mass [g],crude yield [%],oxidative folding yield [%]
Mca(Bzl)-DTyr(Et)-Phe-Gln-Asn-Cys(Bzl)-Sar-Arg(Tos)-Gly-NH2,0.35,60,
Mca(Bzl)-DTyr(MeOBzl)-Phe-Gln-Asn-Cys(Bzl)-Sar-Arg(Tos)-Gly-NH2,0.35,55,
"PEPTIDE1{[Mca].[D-Tyr(Et)].F.Q.N.C.[Sar].R.G.[am]}$PEPTIDE1,PEPTIDE1,1:R3-6:R3$$$V2.0",,,33
"[Mca^1, D-Tyr^2, Sar^7 ]AVP",,,61
